{"source": "patent US20250188479A1", "about": "“Biosynthesis Of Rose Aromas” (AGENCY FOR SCIENCE, TECHNOLOGY AND RESEARCH, priority 2022, published 2025)", "origin": "cited, not measured here", "key": {"[1]": {"tested_on": "Ocimum basilicum (Sweet Basil) ObGES, Geraniol synthase, AY362553", "settings": "Plant Physiol. 134: 370-379 (2004)"}, "[2]": {"tested_on": "NusA-RhNUDX1 fusion protein (Rosa hybrid cultivar RhNUDX1, GPP phosphohydrolase)", "settings": "value in parentheses, Science 349: 81-83 (2015)"}, "[3]": {"tested_on": "Camptotheca acuminata (Happy tree) CaGES, Geraniol synthase, ALL56347", "settings": "J. Ind. Microbiol. Biotechnol. 43, 1281-1292 (2016)"}, "[4]": {"tested_on": "Cinnamomum tenuipile CtGES, Geraniol synthase, CAD29734", "settings": "Phytochemistry 66: 285-293 (2005)"}}, "note": "At least one compound was matched to its structure with a doubt left.", "data": [{"compound": "CC(C)=CCC/C(C)=C/COP(=O)(O)OP(=O)(O)O", "note": "[GPP, geranyl diphosphate]", "values": [{"measurement": "Km", "setting": "[1]", "result": 21, "unit": "µM"}, {"measurement": "Km", "setting": "[2]", "result": 0.14, "unit": "µM"}, {"measurement": "Km", "setting": "[3]", "result": 89.5, "unit": "µM"}, {"measurement": "Km", "setting": "[4]", "result": 55.8, "unit": "µM"}]}]}
